# According to PubChem BioAssay AID493014 (National Center for Advancing Translational Sciences (NCATS), 2011):
# The list shows a part of the results. The main result of the screen is listed elsewhere. These columns were measured beside it and carry no call. Compounds called inactive in the main read-out are mostly missing here. Potencies come from curve fits of mixed quality, noted in brackets.
# Assay: qHTS Assay to Find Inhibitors of Chronic Active B-Cell Receptor Signaling
# Details: ABC-DLBCL IkBa-CBG/CBR reporter, luminescence ratio (green luciferase fused to IkBa over red control in TMD8 lymphoma cells), 4 h
# Summary of the method: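 TMD8 human ABC-DLBCL cells with doxycycline-inducible IκBα–green luciferase fusion and unfused red luciferase, in 0.5% FBS medium; compounds up to 46 uM, 4 h at 37C. Green/red luminescence ratio, filter-overlap corrected, fitted to concentration-response curves.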
# [1] = measured here: CBR red luminescence, cell number
# [2] = measured here: IkBa-CBG green luminescence
Structure (SMILES),AC50 [1],AC50 [2]
CCCN(CCC)CCNc1c(NC2CCN(C(=O)OCC)CC2)c(=O)c1=O,"2.06 µM [rising, partial curve, poor fit]",
CC(=O)c1cccc(Nc2nc(-c3sc(C)nc3C)cs2)c1,"2.51 µM [rising, partial curve, poor fit]",
CCOc1ccc(C(=O)Nc2cccc(-c3ccc(N4CCOCC4)nn3)c2)cc1OCC,"20.6 µM [falling, single point]",
COc1ccccc1Oc1ccc(N/C=C/C(=O)c2ccc(C)o2)cc1,"35.5 µM [falling, single point]",
CC(C)c1ccc(N=C(N)N=C(N)N)cc1,"25.1 µM [falling, partial curve, poor fit]",
O=C(O)CCCCCNS(=O)(=O)c1c(Cl)cccc1Cl,,"6.51 µM [rising, partial curve, poor fit]"
O=c1oc(-c2cccs2)nc2ccc(Br)cc12,"3.55 µM [falling, full curve]",
CCSc1nnc(NC(=O)CSc2ncccn2)s1,"29.1 µM [falling, single point]",
Cc1ccc(-c2nc3cnccn3c2Nc2c(C)cccc2C)o1,"35.5 µM [falling, single point]",
Cc1[nH]c2ccc(F)cc2c1CCN(Cc1cccnc1)C(=S)Nc1cccc(F)c1,"8.91 µM [falling, partial curve, poor fit]",
COc1ccc(CNc2nn[nH]n2)cc1OC,"29.1 µM [rising, single point]",
O=c1oc(-c2ccc([N+](=O)[O-])cc2)nc2ccc(O)cc12,"0.562 µM [falling, full curve]",
C=CCn1c(CSc2nc3ccccc3s2)n[nH]c1=S,,"20 µM [falling, single point]"
CCOC(=O)CCNC(=O)N1CCCC(C(=O)c2ccc3c(c2)OCO3)C1 (stereo not given),"15.8 µM [rising, partial curve]",
COc1cc(/C=N/Nc2ccc(F)cc2F)cc(OC)c1O,"4.11 µM [falling, full curve]",
CC(C)(C)c1cc(CP(=O)(c2ccccc2)c2ccccc2)cc(C(C)(C)C)c1O,"12.6 µM [falling, partial curve]","7.94 µM [rising, partial curve, poor fit]"
CNC(=O)c1c(NC(=O)c2cc(-c3cc(C)c(C)cc3O)n[nH]2)sc2c1CCCC2,"3.16 µM [rising, single point]",
FC(F)(F)c1cc(CO[C@@H]2CCCN[C@@H]2c2ccccc2)cc(C(F)(F)F)c1,"29.1 µM [falling, single point]",
Cc1cc(C)nc(Sc2ncnc(N)c2[N+](=O)[O-])n1,"7.94 µM [falling, partial curve]",
CC(C)(C)OC(=O)NCc1ccc(CNC(=O)c2nc[nH]c2C(=O)N2CCN(C(=O)OC(C)(C)C)CC2)cc1,"5.17 µM [falling, single point]",
COc1cccc(CN(C(=O)/C=C/c2ccco2)C2CCS(=O)(=O)C2)c1 (stereo not given),"12.6 µM [rising, partial curve, poor fit]",

Structure (SMILES),AC50 [1],AC50 [2]
COc1cc(/C=C2/C(=O)ON=C2C)ccc1OCc1ccccc1F,"10 µM [falling, partial curve, poor fit]",
CCOc1ccc(N(CC(=O)NCc2ccc(Cl)cc2)S(=O)(=O)c2ccccc2)cc1,"12.6 µM [rising, partial curve, poor fit]",
O=C(NC1CCC(O)CC1)C1CCN(S(=O)(=O)c2c(Cl)cccc2Cl)CC1 (stereo not given),"14.6 µM [rising, partial curve, poor fit]",
CC(=O)N1N=C(c2ccncc2)OC1(Cc1ccccc1)Cc1ccccc1,"25.1 µM [falling, single point]",
CC(Sc1nnc(-c2ccccc2F)n1C1CC1)C(N)=O (stereo not given),"0.501 µM [falling, partial curve, poor fit]",
Cc1cc(C)c2c(N=NN3CCCCC3)[nH]nc2n1,"2.31 µM [falling, full curve]","2.59 µM [rising, full curve, poor fit]"
COc1ccc(C2c3c(ncn(CCN4CCOCC4)c3=N)Oc3ccc4ccccc4c32)cc1OC (stereo not given),"15.8 µM [falling, single point]",
COCCNC(=O)C(OC(=O)CC1Sc2ccccc2NC1=O)c1ccccc1 (stereo not given),"1.16 µM [rising, full curve]",
COc1ccccc1N1CN(Cc2ccccc2)CNC1=S,"35.5 µM [falling, single point]",
COc1ccccc1-n1ccnc(SCC(=O)NCc2ccccc2Cl)c1=O,"0.651 µM [falling, full curve, poor fit]",
O=C(Nc1ccccc1Br)c1ccccc1-c1ccccc1,"29.1 µM [rising, partial curve, poor fit]",
O=C(NCCC1=CCCCC1)c1ccc2c(c1)N(Cc1ccccc1)C(=O)CS2,"2.06 µM [rising, full curve]",
CC(=O)Nc1ccc(-c2nc3cc(Cl)ccc3o2)cc1,"0.0891 µM [rising, full curve, poor fit]",
Cc1csc(NC(=O)c2ccc3ccccc3n2)n1,"11.2 µM [falling, single point]",
CC1Cc2ccccc2N1C(=O)Cn1nc(C(=O)O)c2ccccc2c1=O (stereo not given),"12.6 µM [falling, partial curve]",
CCOc1ccc(C(=O)NCC(=O)OCC(=O)N2CCCCC2)cc1,"29.1 µM [falling, single point]",
Nc1nc(SCc2ccc([N+](=O)[O-])cc2)nc2nc3c(cc12)CCCC3,"0.651 µM [rising, full curve, poor fit]",
O=C(Nc1ccccc1OC(=O)c1ccc(Cl)cc1)c1ccc(Cl)cc1,"14.6 µM [falling, partial curve, poor fit]",
CC(C)(C)C(=O)NCc1ccc(C(=O)CN2C(=O)NC3(CCCC3)C2=O)s1,"14.6 µM [rising, partial curve, poor fit]",
CCC(C)NC(=O)CN(c1ccc(OC)cc1)S(=O)(=O)c1ccc(NC(C)=O)cc1 (stereo not given),"35.5 µM [rising, single point]",
CCOc1cc(/C=N/Nc2cc(C)nc(-n3nc(C)cc3C)n2)ccc1O,"0.891 µM [falling, partial curve, poor fit]",

Structure (SMILES),AC50 [1],AC50 [2]
FC(F)(F)c1ccc(NCc2ccccn2)nc1,"0.708 µM [rising, partial curve, poor fit]",
Cc1cccc(C)c1NC(=O)CNC(=O)c1cnccn1,"0.0291 µM [rising, full curve, poor fit]",
CCOc1ccc(NCc2nc3ccccc3n2CCOc2ccccc2)cc1,"7.31 µM [falling, partial curve]",
Cn1c(=O)cc(OCCCC(=O)NCCN2CCN(c3ccccc3F)CC2)c2ccccc21,"0.517 µM [rising, partial curve, poor fit]",
CS(=O)(=O)c1ccc2nc(NC(=O)c3ccccc3)sc2c1,"11.2 µM [falling, partial curve, poor fit]",
COc1cc2c(cc1OC)C(Cc1ccc(O)cc1)N(C)CC2 (stereo not given),"2.91 µM [rising, partial curve, poor fit]",
c1cc2c(cc1C1CCCCC1)c1c3n2CCCNC3CCC1 (stereo not given),"16.4 µM [falling, partial curve]",
COC(=O)[C@H](Cc1ccccc1)NC(=O)O[C@@H]1C(=O)c2cc(OC)ccc2O[C@H]1c1ccc(OC)c(Br)c1,"0.082 µM [rising, full curve, poor fit]",
O=C(O)/C=C/C(=O)Nc1ccccc1C(=O)OCC(=O)c1ccc2c(c1)OCCO2,"35.5 µM [falling, single point]",
Cc1ccc(/C=C(\C#N)C(=O)N2CCCC2)c(C)c1,"35.5 µM [falling, partial curve, poor fit]",
CCOc1ccc(-c2c(C(=O)N/N=C/c3ccc(Cl)cc3)nnn2-c2nonc2N)cc1,"12.6 µM [rising, partial curve, poor fit]",
CC(OC(=O)c1ccc2c(c1)C(=O)N(Cc1ccncc1)C2=O)C(=O)Nc1cccc(Cl)c1Cl (stereo not given),"23.1 µM [rising, partial curve, poor fit]",
CCN(CC)S(=O)(=O)c1ccc(N2CCN(C)CC2)c(NC(=O)Nc2ccc(C)cc2)c1,"28.2 µM [falling, partial curve, poor fit]",
Cc1ccccc1NC(=O)c1ccc2nccnc2c1,"12.6 µM [falling, partial curve]",
Cc1nnc(NC(=O)c2ccc(S(=O)(=O)N3CCCCC3C)cc2)o1 (stereo not given),,"25.1 µM [falling, single point]"
O=C(NC(=S)N1CCN(c2ccccn2)CC1)c1ccco1,"0.112 µM [rising, full curve, poor fit]",
O=C(O)c1cccc(CSc2nnc(COc3ccccc3)o2)c1,"32.6 µM [rising, single point]",
Cc1ccccc1CNCc1ccc2c(c1)OCO2,"35.5 µM [falling, single point]",
COc1ccc(/C=N/n2c(SC)nnc(C(C)(C)C)c2=O)cc1,"3.26 µM [rising, single point]",
CC(=O)C1=C(O)C(=O)N(c2ccc(C(=O)O)cc2)C1c1ccc([N+](=O)[O-])cc1 (stereo not given),"35.5 µM [falling, partial curve, poor fit]",
Cc1cc(/C=N/NC(=O)c2ccccn2)c(C)n1-c1cccc([N+](=O)[O-])c1,"10 µM [falling, partial curve, poor fit]",

# Of the compounds above, these have a thiophene ring, fused or not:
Structure (SMILES),AC50 [1],AC50 [2]
O=c1oc(-c2cccs2)nc2ccc(Br)cc12,"3.55 µM [falling, full curve]",
CNC(=O)c1c(NC(=O)c2cc(-c3cc(C)c(C)cc3O)n[nH]2)sc2c1CCCC2,"3.16 µM [rising, single point]",
CC(C)(C)C(=O)NCc1ccc(C(=O)CN2C(=O)NC3(CCCC3)C2=O)s1,"14.6 µM [rising, partial curve, poor fit]",
